Laboratory results published in PMC9949381.
No constants are given. Whether binding was seen depends on the method and setting. Binding seen in cells or lysates may run through a third protein. Some results given as binding are weak or reduced against the parent protein; the word gives no strength. Sequences can lack the tags named with a protein.

Sequences of proteins named here, by UniProt entry; tags and fusion partners are left off.
UniProt O15379: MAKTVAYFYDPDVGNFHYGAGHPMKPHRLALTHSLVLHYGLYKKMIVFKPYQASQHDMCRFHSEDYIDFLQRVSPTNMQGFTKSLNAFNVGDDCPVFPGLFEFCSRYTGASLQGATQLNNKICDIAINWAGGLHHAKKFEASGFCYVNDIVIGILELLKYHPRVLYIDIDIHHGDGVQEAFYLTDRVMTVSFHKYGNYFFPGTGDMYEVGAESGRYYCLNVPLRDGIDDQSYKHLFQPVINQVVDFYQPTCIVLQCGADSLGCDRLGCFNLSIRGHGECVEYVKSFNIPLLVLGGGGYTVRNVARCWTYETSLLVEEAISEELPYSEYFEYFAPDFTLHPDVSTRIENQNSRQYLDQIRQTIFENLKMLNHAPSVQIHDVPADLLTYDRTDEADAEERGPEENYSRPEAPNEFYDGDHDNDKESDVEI

Key:
[1] = molecular target: T1, 3X-Flagged Seven in Absentia Homolog 2 (SIAH2) protein (human) (UniProt O43255); test: proximity ligation; Duolink in situ PLA on fixed, permeabilised MM.1S-3xFlag-tagged SIAH2 cells after 24 h with 0.5 umol/L lactacystin; anti-FLAG and anti-HDAC3 primary antibodies
T1 sequence: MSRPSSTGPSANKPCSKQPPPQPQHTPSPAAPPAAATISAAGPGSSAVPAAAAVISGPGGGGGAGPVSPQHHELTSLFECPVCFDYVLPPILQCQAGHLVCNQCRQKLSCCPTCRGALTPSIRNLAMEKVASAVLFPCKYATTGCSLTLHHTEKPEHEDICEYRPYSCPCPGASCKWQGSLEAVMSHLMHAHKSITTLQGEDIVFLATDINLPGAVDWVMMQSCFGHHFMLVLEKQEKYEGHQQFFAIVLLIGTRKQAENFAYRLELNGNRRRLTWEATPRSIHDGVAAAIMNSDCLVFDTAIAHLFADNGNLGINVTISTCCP

[2] = molecular target: T1, 3X-Flagged Seven in Absentia Homolog 2 (SIAH2) protein (human); test: co-IP; SIAH2 pull-down; HDAC3 detected in the immunoprecipitated fraction (Supplementary Fig. S7D); method not described in the text shown

- binding [1]: binds
- binding [2]: binds
Substance: histone deacetylase 3 (HDAC3) (from UniProt O15379 1-428) (enzyme)
